B1: MP27966 (Fc fusion, not shown: a dimerising Fc or GST; small tags and cut ends)
scFv: QVQLQQSGAELVKPGSSVKISCKASGYTFTTNFMHWIKQQPGNGLEWIGWINPGDGNTEYNQKFNVKATLTADKSSSTAYMELGSLTSEDSAVYFCARGDYSGWGPNWFDYWGQGTLVTVSSGGGGSGGGGSGGGGSDIQLTQSPSSMSASLGDTVTITCLASQDIGDYLSWYQQKPGKSPKVMVYGATNLEDGVPSRFSGSRSGSDYSLTINSLGYDDEGIYHCHQYYQYPLTFGSGTKLEIKR
B2: MP27967 (Fc fusion, not shown: a dimerising Fc or GST; small tags and cut ends)
scFv: EVQLQQSGAELGKPGTSVKLSCKVSGYNIRNTYIHWVNQRPGKGLEWIGRIDPANGDTIYAEKFKSKATLTADTSSNTAYMQLSQLKSDDTAIYFCAMRMVGTGGYAMDAWGQGASVTVSSGGGGSGGGGSGGGGSDIVLTQSPALAVSPGQRATISCRASQSVSISSVNLMNWYQQKPGQQPKLLIYHASNLASGIPTRFSGSGSGTDFTLTIDPVQADDIATYYCQQSRESPWTFGGGTKLELKR
B3: MP27965 (Fc fusion, not shown: a dimerising Fc or GST; small tags and cut ends)
scFv: QVQLQQSGAELVKPGSSVKISCKASGYTFTTNFMHWIKQQPGNGLEWIGWINPGDGNTEYNQKFNVKATLTADKSSSTAYMELGSLTSEDSAVYFCARGDYSGWGPNWFDYWGQGTLVTVSSDGGGSGGGGSGGGGSDIQMTQSPASLSASLGETVTIECRASEDIYSNLAWYQQKPGNSPQLLIHDANNLADGVPSRFSGSGSGTQYSLKINSLQSEDVASYFCQQYNNYPLTFGSGTKLEIKR
B4: MP28132 (Fc fusion, not shown: a dimerising Fc or GST; small tags and cut ends)
scFv: QVQLQQSGAELVEPGSSVKISCKASGYTFTSNFMHWIRQQPGNGLEWIGWVYRGDGDTEYNQRFNGKATLTADESSSTAYIQLSGLTSEDSAVYFCARGDSSGWGPNWFDSWGQGTLVTVSSGGGGSGGGGSGGGGSDVQMTQSPASLSASLGETVTIECRASEDIYSNLAWYQQKPGNSPQLLIYDANSLADGVPSRFSGSGSGTQYSLKINSLQSEDVASYFCQQYNNYPLTFGSETRLEIKR
B5: MP27964 (Fc fusion, not shown: a dimerising Fc or GST; small tags and cut ends)
scFv: EVHLQQSGAELVKPGSSVKISCKASGYTFTSNFMHWIKQQPGNGLEWIGWIYPGDGDTEYNQKFNGKASLTADKSSSTAYMQLSSLTSEDSAVYFCALSGDGYFDYWGQGVMVTVSSGGGGSGGGGSGGGGSEIVLTQSPTTMTASPGEKVTITCRVSSSVSYMHWYQQKPDASPKPWIYETSKLASGVPDRFSGSGSGTSYSLTINNMEAEDAATYYCQQWNFPLTFGSGTKLEIKR
B6: MP27963 (Fc fusion, not shown: a dimerising Fc or GST; small tags and cut ends)
scFv: QVQLQQSGAELVRPGSSVKISCKASGYTFTSNFMHWIKQQPGNGLEWIGWISPGDGDTEYNQKFNGKATLTADESSSTAYIQLSGLTSEDSAVYFCARGDSSGWGPNWFDSWGQGTLVTVSSGGGGSGGGGSGGGGSDIQMTQSPSSMSASLGDTVTITCLASQDIGNYLSWYQQKPGKSPKLMIYDVNNLEDGVPSRFSGSRSGSNHSLTINSLGYDDEGIYHCQQYYEYPLTFGSGTKLEIKR

Sequences of proteins named here, by UniProt entry; tags and fusion partners are left off. A change or cut given only in a name is not applied to a line headed by its entry.
UniProt P20023: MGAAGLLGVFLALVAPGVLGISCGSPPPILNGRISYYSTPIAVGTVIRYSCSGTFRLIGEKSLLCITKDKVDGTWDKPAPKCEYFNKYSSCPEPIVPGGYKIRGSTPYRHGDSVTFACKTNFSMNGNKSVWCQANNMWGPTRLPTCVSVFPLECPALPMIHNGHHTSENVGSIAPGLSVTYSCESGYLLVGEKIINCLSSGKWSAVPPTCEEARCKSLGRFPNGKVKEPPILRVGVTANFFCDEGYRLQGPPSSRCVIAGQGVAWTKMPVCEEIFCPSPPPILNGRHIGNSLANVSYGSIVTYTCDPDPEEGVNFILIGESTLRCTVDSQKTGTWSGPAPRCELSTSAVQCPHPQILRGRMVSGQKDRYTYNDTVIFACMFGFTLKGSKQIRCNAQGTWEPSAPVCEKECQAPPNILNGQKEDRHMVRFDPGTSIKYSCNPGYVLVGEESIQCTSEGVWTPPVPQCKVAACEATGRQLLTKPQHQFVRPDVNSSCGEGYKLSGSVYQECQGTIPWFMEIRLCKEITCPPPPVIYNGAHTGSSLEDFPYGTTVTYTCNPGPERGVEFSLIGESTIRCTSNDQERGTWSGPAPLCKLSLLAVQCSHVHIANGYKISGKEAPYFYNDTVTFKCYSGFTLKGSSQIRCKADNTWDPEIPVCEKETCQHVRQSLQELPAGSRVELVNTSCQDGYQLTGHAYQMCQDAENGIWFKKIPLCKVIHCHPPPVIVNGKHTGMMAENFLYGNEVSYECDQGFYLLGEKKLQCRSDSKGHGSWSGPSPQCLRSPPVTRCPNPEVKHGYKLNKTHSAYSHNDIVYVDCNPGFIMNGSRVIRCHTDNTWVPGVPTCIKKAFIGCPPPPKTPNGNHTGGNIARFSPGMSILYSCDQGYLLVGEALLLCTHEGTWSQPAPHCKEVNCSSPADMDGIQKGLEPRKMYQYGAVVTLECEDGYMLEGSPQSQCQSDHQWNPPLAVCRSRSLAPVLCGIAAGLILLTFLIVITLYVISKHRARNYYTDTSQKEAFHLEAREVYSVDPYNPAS

Results are given in words; binding and its absence hold for the method and conditions named. Some entries that bind do so weakly or less than the wild type.

This test concerns the target human CD21 (human) (UniProt P20023). The test can be described thus: phage display panning on beads coated with immobilised CD21; clones tested as ScFv-MuFc fusions by flow cytometry on H9 cells transduced to express CD21 (FIG. 4D). A general note: A flow cytometer gives signals particle by particle.
For B1, the binding entry is “binds”.
The entry for B2 is “binds”; for B3 it is “binds”; for B4 it is “binds”.
Next, B5: “binds”; B6: “binds”.

Values taken from patent publication US20210309716A1.
